Reference: article doi:10.1101/2024.09.05.611546
No constants are given. Whether binding was seen depends on the method and setting. For part of these data: Binding calls can cover weak binding; strength is not graded here. For part of these data: Binding seen in cells or lysates may run through a third protein. Where a sequence is shown, tags or fusion partners need not be part of it.

Key:
[1] = biological target: Arabidopsis Dcp1 fused to the GAL4 DNA binding domain (BD-Dcp1) (Arabidopsis thaliana) (UniProt Q9SJF3); experiment: two-hybrid
[2] = biological target: AtDcp1 fused with the C-terminal half of YFP (Dcp1-YC) (Arabidopsis thaliana) (UniProt Q9SJF3); experiment: split reporter

Molecule	binding [1]	binding [2]
TCV capsid protein fused to the GAL4 activation domain (AD-CP) (from UniProt P06663 1-351)	binds	–
TCV P28 fused to the GAL4 activation domain (AD-P28) (protein, UniProt P17460 1-250) MPLLHTLNTALAVGLLGARYYPEVQTFLGLPDYVGHMKNVVRSVFQGSGLVVVSSDTVGVRGTYSNRGQIGSSLGCILAVPDSGADIEIDLDRLVGTEEEATSCLVEAVGSTADVPRRRVRQKGRFAMHAVNAAKLHFCGVPKPTEANRLAVSKWLVQYCKERHVVDSHIRTIVNTALPRVFTPDAEDIQVVLDLHSVRAHDHRNALAEAGKVRKWWVNLAMHPMTGRSWSRAWRRLCRLPDDQAISFVR	no binding	–
TCV P28 fused with the N-terminal half of YFP (YN-P28) (protein, UniProt P17460 1-250) MPLLHTLNTALAVGLLGARYYPEVQTFLGLPDYVGHMKNVVRSVFQGSGLVVVSSDTVGVRGTYSNRGQIGSSLGCILAVPDSGADIEIDLDRLVGTEEEATSCLVEAVGSTADVPRRRVRQKGRFAMHAVNAAKLHFCGVPKPTEANRLAVSKWLVQYCKERHVVDSHIRTIVNTALPRVFTPDAEDIQVVLDLHSVRAHDHRNALAEAGKVRKWWVNLAMHPMTGRSWSRAWRRLCRLPDDQAISFVR	–	no binding
